This passage reports binding results from US20220025060A1.

Sequences of proteins named here, by UniProt entry; tags and fusion partners are left off. Residues count along the entry.
UniProt P25942, residues 21-193: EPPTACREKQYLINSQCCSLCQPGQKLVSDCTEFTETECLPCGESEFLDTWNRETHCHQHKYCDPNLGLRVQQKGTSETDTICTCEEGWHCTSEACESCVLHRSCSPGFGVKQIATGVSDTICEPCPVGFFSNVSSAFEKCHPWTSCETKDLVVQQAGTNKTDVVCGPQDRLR

The target of this assay is His-tagged human CD40 (h-CD40-his) recombinant protein (human) (UniProt P25942). In words: ELISA. For orientation: ELISA stands for enzyme-linked immunosorbent assay.

No constants are given. Whether binding was seen depends on the method and setting. Some entries that bind do so weakly or less than the wild type.

B1: humanized antibody hu9E5 (H1c heavy chain, L1a light chain) (antibody, human IgG1, kappa, V domains shown)
VH: QVQLVQSGAEVKKPGASVKVSCKASGYILTTYWITWVRQAPGQGLEWMGDIHPGSGSTKYNEKFKSRVTLTVDTSISTAYMELSRLRSEDTAVYYCARRDYWGQGTTVTVSS
VL: DIVMTQSPLSLPVTPGEPASISCRSSQNIVNSQGNTYLEWYLQKPGQSPQLLIYKVTNRFSGVPDRFSGSGSGTDFTLKISRVEAEDVGVYYCFQASLVPWTFGGGTKVEIKR
For the molecule B1, the binding entry is reported as “binds”.

B2: humanized antibody hu2H6 (H1b heavy chain, L1c light chain) (antibody, human IgG1, kappa, V domains shown)
VH: QVQLVQSGAEVKKPGSSVKVSCKASGYAFSDYLIEWVRQAPGQGLEWMGVINPGSGGSNYNEKIKDRVTLTADKSTSTAYMELSSLRSEDTAVYYCARGGGGFTYWGQGTLVTVSS
VL: DIQLTQSPSSLSASVGDRVTITCRASQDISNYLNWYQQKPGKTIKLLLNFASRLHSGVPSRFSGSGSGTDFTFTISSLQPEDIATYYCQQGSTLPWTFGGGTKVEIKR
B2: the binding result is “binds”.
